Measurements from US20180325119A1 (PIONEER HI BRED INTERNATIONAL, published 2018).
No constants are given. Whether binding was seen depends on the method and setting. In cells and extracts the contact can be indirect. Some entries that bind do so weakly or less than the wild type.

Biological target: IPD082Aa-2, 20.5 kDa C-terminal fragment of IPD082Aa (Pseudomonas vranovensis)
Test: co-expression in E. coli (polycistronic); complex co-purified by immobilized metal ion chromatography with a His-tag on only one of the two fragments

B1: IPD082Aa-1, N-terminal region of IPD082Aa (pETDuet-1 construct, N-6 His) (other)
chain: MQTTVSETLVSGSDPRLQVSMGNETANGRWDNPYAIQFTYSIAGRQFFYGQNLKTHYWFIQELLPGGKMGQETANGRWDNPYAVQFAFSVGGRQFFYGQNLETNYWFIQELLAGGKMGQETANGRWNNPYASQFAFSVGGRQFFYGQNLKTNYWFIQELLAGGKMGQETANGTLDGPFAVQFPFSVGGSQYFYGQNIKDRSWFIKELLAGGKVGKTTASGRWDNAYAVQFAYPAEQYGRQYFYGQNLDTNYWFVQELLPGGAMGEEIMNGRWGNPYATQFAYEQGGISYFYGQNQSSNYWFIQELLSDTEYTVRRLPLLDYSSSTSAAQQSAPGVCL
notes: Co-expressed in pETDuet-1 with untagged C-terminal fragments of IPD082 homologs; not shown: N-terminal 6xHis tag of the pETDuet-1 vector ('N-6 His for -1')
binding: binds
